What all share (experiment): DAPPL (digital affinity profiling via proximity ligation, sequencing)
What all share (settings): 10 mM Tris-HCl pH 7.5, 50 mM NaCl, 1 mM DTT, 4% glycerol, room temperature, 30 min; GST-TFs on glutathione beads, 16-mer random dsDNA library, 0.1% …; high values mean tight binding; double strand, one strand shown; scale: fold enrichment (6-mer frequency, TF over GST control)

By UniProt entry, the sequences of proteins in these tests, tags left out. Where a name states a change or a piece, a line headed by the entry shows the natural chain unless it says otherwise.
UniProt Q9Y603: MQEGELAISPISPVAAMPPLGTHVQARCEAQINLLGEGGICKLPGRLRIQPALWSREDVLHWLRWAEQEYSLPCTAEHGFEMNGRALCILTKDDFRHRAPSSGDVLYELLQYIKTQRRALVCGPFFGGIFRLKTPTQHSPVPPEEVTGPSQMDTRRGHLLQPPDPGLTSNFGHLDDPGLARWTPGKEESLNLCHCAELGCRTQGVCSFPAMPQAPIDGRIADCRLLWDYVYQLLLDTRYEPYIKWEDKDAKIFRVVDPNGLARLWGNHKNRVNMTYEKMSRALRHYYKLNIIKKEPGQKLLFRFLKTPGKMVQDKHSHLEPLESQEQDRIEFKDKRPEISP
UniProt P41212: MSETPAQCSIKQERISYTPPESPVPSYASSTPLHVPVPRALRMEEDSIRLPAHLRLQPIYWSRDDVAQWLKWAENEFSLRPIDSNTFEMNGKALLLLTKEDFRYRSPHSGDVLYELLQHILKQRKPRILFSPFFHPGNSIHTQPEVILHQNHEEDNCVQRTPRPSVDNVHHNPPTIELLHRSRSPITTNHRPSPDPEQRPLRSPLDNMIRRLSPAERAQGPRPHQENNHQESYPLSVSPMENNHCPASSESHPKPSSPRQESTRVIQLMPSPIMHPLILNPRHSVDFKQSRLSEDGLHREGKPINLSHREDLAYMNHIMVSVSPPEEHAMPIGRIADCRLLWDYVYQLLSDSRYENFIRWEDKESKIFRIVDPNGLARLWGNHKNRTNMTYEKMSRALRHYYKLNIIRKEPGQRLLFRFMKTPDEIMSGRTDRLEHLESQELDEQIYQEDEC

For experiment [1], the target named is T1, ELF3 (UniProt P78545).
T1 sequence: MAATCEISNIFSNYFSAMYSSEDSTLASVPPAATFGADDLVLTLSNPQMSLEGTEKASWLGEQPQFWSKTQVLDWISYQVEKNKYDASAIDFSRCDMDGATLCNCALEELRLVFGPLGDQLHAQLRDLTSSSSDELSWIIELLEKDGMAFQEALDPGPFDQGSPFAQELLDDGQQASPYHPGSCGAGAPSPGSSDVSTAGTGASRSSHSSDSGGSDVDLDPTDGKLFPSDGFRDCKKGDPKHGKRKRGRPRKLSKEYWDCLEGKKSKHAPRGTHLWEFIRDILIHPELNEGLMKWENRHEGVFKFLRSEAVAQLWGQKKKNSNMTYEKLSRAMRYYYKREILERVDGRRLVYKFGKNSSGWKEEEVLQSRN

Experiment [2] deals with ETV7 (UniProt Q9Y603).
For experiment [3], the target named is ETV6 (UniProt P41212).

The list shows a part of the results, in another mix than the full data. At the low end of the ranking the order means little.

For CCGCGA, the values for the binding signal in experiment [1], in experiment [2] and in experiment [3] were 0.694, 0.761 and 0.658, respectively.
The corresponding values for CGCAAG are 0.706, 0.822 and 0.734.
Turning to GGGATA, the binding signal in experiment [1] is 0.813; in experiment [2], 0.861; in experiment [3] it was 0.761.
The corresponding values for GGAATC are 0.721, 0.762 and 0.749.
For TGTAGT, the binding signal in experiment [1] turned out to be 0.896; in experiment [2], 0.942; in experiment [3] it was 0.904.
For CGGACG, the binding signal turned out to be 0.4 in experiment [1], 0.438 in experiment [2] and 0.45 in experiment [3].
For AGTCTA, the binding signal came out at 0.741 in experiment [1], 0.741 in experiment [2] and 0.718 in experiment [3].
Turning to AGATAG, the binding signal in experiment [1] is 0.872; in experiment [2] it was 0.921; in experiment [3], 0.744.
For the sequence GCCAGC, the binding signal in experiment [1] was 0.784; in experiment [2] it was 0.778; in experiment [3], 0.684.
For GAGGGT, the binding signal in experiment [1] was found to be 0.565; in experiment [2] it was 0.644; in experiment [3], 0.555.
GTTGGA: the binding signal in experiment [1] is 0.578; in experiment [2], 0.531; in experiment [3], 0.509.
On to TTGAGT, for which the binding signal in experiment [1] worked out at 0.682; in experiment [2] it was 0.752; in experiment [3], 0.667.
For GCGGGG, in that order: 0.377, 0.574 and 0.415.
As to CGGAGA, the binding signal in experiment [1] was found to be 0.206; in experiment [2], 0.26; in experiment [3], 0.194.
Consider CAGGAG, for which the binding signal stood at 0.269 in experiment [1], 0.343 in experiment [2] and 0.272 in experiment [3].
For GTAGAC, the figures for the binding signal in experiment [1], in experiment [2] and in experiment [3] were 0.832, 0.775 and 0.733, respectively.
For CCTGAG, in that order: 0.818, 0.776 and 0.823.
The corresponding values for AGTCCA are 0.617, 0.681 and 0.699.
TTGGAG: the binding signal in experiment [1] was found to be 0.611; in experiment [2], 0.596; in experiment [3], 0.483.
For TAGGAG, the binding signal in experiment [1] turned out to be 0.411; in experiment [2] it was 0.434; in experiment [3], 0.4.
For CGGTGC, the figures for the binding signal in experiment [1], in experiment [2] and in experiment [3] were 0.559, 0.691 and 0.723, respectively.
The corresponding values for AACCAG are 0.854, 0.871 and 0.736.
For the sequence ACGAGG, the binding signal in experiment [1] was determined as 0.692; in experiment [2], 0.775; in experiment [3], 0.766.
For the sequence CGTGAA, the binding signal was 0.474 in experiment [1], 0.431 in experiment [2] and 0.428 in experiment [3].
Take GGACAG: the binding signal in experiment [1] came to 0.56; in experiment [2] it was 0.631; in experiment [3] it was 0.585.
With AGACGA, the binding signal was determined as 0.753 in experiment [1], 0.73 in experiment [2] and 0.633 in experiment [3].
As for CCTAGT, the binding signal stood at 1.04 in experiment [1], 0.973 in experiment [2] and 0.867 in experiment [3].
As for AGTCTG, the values for the binding signal in experiment [1], in experiment [2] and in experiment [3] were 0.62, 0.724 and 0.544, respectively.
For ACGCAT, in that order: 0.859, 0.746 and 0.786.
Regarding GCGCTA, the binding signal in experiment [1] stood at 0.807; in experiment [2] it was 0.963.
Take TCGGGA: the figures for the binding signal in experiment [1], in experiment [2] and in experiment [3] were 0.441, 0.392 and 0.352, respectively.
The corresponding values for AGTAGA are 0.856, 0.771 and 0.8.
Regarding GGGCGA, the binding signal is 0.768 in experiment [1], 0.855 in experiment [2] and 0.834 in experiment [3].
Regarding GAGCAT, the binding signal in experiment [1] was 0.803; in experiment [2] it was 0.706; in experiment [3] it was 0.735.
CAGGGT: the binding signal in experiment [1] stood at 0.875; in experiment [2] it was 0.868; in experiment [3], 0.852.
Take AGTCGC: the binding signal amounted to 0.533 in experiment [1], 0.512 in experiment [2] and 0.506 in experiment [3].
Turning to AGAGGT, the binding signal in experiment [1] is 0.958; in experiment [2] it was 0.896; in experiment [3], 0.772.
Regarding GGGAAG, the binding signal in experiment [1] came to 0.906; in experiment [2], 0.952.
As to GAGGAT, the binding signal came to 0.583 in experiment [1], 0.646 in experiment [2] and 0.566 in experiment [3].
TTGTGA: the values for the binding signal in experiment [1], in experiment [2] and in experiment [3] were 0.775, 0.78 and 0.728, respectively.
AGTTGG: the binding signal in experiment [1] is 0.506; in experiment [2], 0.554; in experiment [3], 0.523.
For AAGGAC, in that order: 0.892, 0.912 and 0.851.
With CGTCAG, the binding signal was determined as 0.894 in experiment [1], 0.851 in experiment [2] and 0.867 in experiment [3].
Consider AAGACG, for which the binding signal in experiment [1] is 0.786; in experiment [2] it was 0.826; in experiment [3], 0.743.
On to GGGGAG, for which the values for the binding signal in experiment [1], in experiment [2] and in experiment [3] were 0.395, 0.425 and 0.403, respectively.
For CACGGT, in that order: 0.828, 1 and 0.86.
Turning to GAGGCA, the binding signal in experiment [1] was 0.485; in experiment [2] it was 0.499; in experiment [3] it was 0.444.
In the case of ACGTAG, the values for the binding signal in experiment [1], in experiment [2] and in experiment [3] were 0.79, 0.801 and 0.755, respectively.
On to GGCGGG, for which the binding signal in experiment [1] came out at 0.274; in experiment [2], 0.42; in experiment [3], 0.33.
For TCAGTG, in that order: 0.77, 0.796 and 0.766.
Regarding GGTGTA, the results for the binding signal in experiment [1], in experiment [2] and in experiment [3] were 0.981, 0.863 and 0.786, respectively.
On to CGAGCC, for which the binding signal in experiment [1] was 0.809; in experiment [2], 0.857; in experiment [3], 0.899.
As to GACGGT, the binding signal in experiment [1] was found to be 0.384; in experiment [2] it was 0.502; in experiment [3], 0.491.
For the sequence CGGGAT, the binding signal in experiment [1] was 0.596; in experiment [2], 0.649; in experiment [3], 0.625.
With GCGGTT, the binding signal in experiment [1] was found to be 0.726; in experiment [2], 0.752; in experiment [3], 0.751.
As for CAACGG, the binding signal in experiment [1] came to 0.837; in experiment [2], 0.914; in experiment [3], 0.996.
For the sequence CGAGAG, the results for the binding signal in experiment [1], in experiment [2] and in experiment [3] were 0.412, 0.466 and 0.373, respectively.
For GCGCGA, the binding signal in experiment [1] amounted to 0.697; in experiment [2], 0.831; in experiment [3], 0.666.
In the case of GGTAGC, the binding signal in experiment [1] was 0.888; in experiment [2] it was 0.852; in experiment [3], 0.765.
For GAGTTT, in that order: 0.633, 0.719 and 0.639.
Consider TGTGAA, for which the binding signal came to 0.774 in experiment [1], 0.866 in experiment [2] and 0.769 in experiment [3].
Turning to CAGCAG, the binding signal turned out to be 0.913 in experiment [1], 0.851 in experiment [2] and 0.807 in experiment [3].
The corresponding values for CGCAGC are 0.766, 0.843 and 0.752.
For GAGGCC, in that order: 0.404, 0.436 and 0.43.
For AAGAGA, in that order: 0.912, 0.882 and 0.83.
In the case of GGAGCA, the binding signal in experiment [1] was 0.488; in experiment [2], 0.499; in experiment [3] it was 0.469.
Consider AGAGTG, for which the binding signal is 0.61 in experiment [1], 0.801 in experiment [2] and 0.641 in experiment [3].
Consider GACACG, for which the results for the binding signal in experiment [1], in experiment [2] and in experiment [3] were 0.672, 0.761 and 0.662, respectively.
For CAGGTA, in that order: 0.796, 0.74 and 0.814.
The corresponding values for TGGGGC are 0.713, 0.708 and 0.857.
As to CATGAG, the binding signal in experiment [1] is 0.699; in experiment [2], 0.644; in experiment [3], 0.632.
As for GGGTAG, the binding signal in experiment [1] turned out to be 0.744; in experiment [2], 0.741; in experiment [3], 0.629.
Take GATTGT: the binding signal turned out to be 0.717 in experiment [1], 0.894 in experiment [2] and 0.83 in experiment [3].
In the case of GGGACG, the values for the binding signal in experiment [1], in experiment [2] and in experiment [3] were 0.505, 0.495 and 0.47, respectively.
As for CGCATT, the binding signal in experiment [1] was 0.768; in experiment [2] it was 0.745; in experiment [3] it was 0.767.
Regarding TAGCCG, the binding signal in experiment [1] was found to be 0.858; in experiment [2] it was 0.986; in experiment [3], 0.87.
As for TCAGGG, the results for the binding signal in experiment [1], in experiment [2] and in experiment [3] were 0.891, 0.801 and 0.751, respectively.
Regarding GACAAT, the results for the binding signal in experiment [1], in experiment [2] and in experiment [3] were 0.917, 0.998 and 0.937, respectively.
GACCCG: the binding signal was 0.753 in experiment [1], 0.844 in experiment [2] and 0.861 in experiment [3].
The corresponding values for CAATCG are 0.824, 0.885 and 0.903.
For the sequence CGCAGG, the binding signal in experiment [1] came to 0.855; in experiment [2] it was 0.891; in experiment [3] it was 0.852.
The corresponding values for CCAGTT are 0.645, 0.589 and 0.595.
For TCGCCA, the figures for the binding signal in experiment [1], in experiment [2] and in experiment [3] were 0.906, 0.866 and 0.978, respectively.
For the sequence CAAGGC, the binding signal worked out at 0.861 in experiment [1], 0.867 in experiment [2] and 0.849 in experiment [3].

The record behind these values is PMC7862700.
